Source: the supplement of paper PMC10849652
The list shows a part of the results.

Amino acid sequences for entries named in this document (tags omitted). A change or cut given only in a name is not applied to a line headed by its entry.
UniProt Q9Y312: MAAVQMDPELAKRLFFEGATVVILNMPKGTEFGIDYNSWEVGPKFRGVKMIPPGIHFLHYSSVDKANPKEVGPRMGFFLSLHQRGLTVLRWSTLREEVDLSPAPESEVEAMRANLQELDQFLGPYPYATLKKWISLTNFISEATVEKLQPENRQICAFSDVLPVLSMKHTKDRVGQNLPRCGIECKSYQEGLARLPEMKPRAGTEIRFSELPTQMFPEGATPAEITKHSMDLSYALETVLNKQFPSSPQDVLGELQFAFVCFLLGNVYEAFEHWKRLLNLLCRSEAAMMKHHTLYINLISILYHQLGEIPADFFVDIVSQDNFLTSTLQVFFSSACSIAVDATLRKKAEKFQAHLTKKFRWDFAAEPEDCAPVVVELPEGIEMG
UniProt Q96M93: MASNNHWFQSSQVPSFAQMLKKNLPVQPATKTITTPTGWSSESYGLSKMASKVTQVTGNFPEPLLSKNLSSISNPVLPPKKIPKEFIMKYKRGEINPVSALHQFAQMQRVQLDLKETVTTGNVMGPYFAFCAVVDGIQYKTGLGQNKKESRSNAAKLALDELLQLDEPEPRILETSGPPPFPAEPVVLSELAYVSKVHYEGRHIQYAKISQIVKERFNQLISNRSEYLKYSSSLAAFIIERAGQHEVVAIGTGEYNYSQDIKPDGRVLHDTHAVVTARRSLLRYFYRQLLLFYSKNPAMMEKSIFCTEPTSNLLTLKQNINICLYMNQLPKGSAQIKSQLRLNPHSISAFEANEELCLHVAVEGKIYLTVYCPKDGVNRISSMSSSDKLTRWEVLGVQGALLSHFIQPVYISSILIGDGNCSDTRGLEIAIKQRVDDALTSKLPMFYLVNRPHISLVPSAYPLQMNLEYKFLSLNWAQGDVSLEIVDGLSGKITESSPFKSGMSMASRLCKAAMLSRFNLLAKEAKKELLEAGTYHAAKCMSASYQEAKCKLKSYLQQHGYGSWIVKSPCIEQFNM
UniProt Q13685: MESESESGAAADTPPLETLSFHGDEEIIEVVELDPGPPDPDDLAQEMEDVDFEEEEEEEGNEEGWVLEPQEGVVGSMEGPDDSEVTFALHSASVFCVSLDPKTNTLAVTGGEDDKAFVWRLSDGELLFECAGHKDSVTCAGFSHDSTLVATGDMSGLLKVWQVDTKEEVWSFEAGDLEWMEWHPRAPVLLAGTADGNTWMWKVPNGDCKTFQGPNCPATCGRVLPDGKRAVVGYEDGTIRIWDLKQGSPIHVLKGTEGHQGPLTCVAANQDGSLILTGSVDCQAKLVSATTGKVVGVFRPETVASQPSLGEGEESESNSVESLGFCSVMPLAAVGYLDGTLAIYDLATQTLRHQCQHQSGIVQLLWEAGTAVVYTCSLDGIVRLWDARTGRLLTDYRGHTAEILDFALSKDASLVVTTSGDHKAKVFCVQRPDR
UniProt Q96GS6: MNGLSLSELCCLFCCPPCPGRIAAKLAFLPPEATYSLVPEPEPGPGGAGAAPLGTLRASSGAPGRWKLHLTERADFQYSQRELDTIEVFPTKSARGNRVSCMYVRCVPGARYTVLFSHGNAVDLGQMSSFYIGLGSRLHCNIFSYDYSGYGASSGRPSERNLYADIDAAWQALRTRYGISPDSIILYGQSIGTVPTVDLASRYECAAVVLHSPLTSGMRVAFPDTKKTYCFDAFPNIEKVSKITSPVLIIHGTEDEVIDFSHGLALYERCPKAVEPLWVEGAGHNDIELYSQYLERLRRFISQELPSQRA
UniProt P24666: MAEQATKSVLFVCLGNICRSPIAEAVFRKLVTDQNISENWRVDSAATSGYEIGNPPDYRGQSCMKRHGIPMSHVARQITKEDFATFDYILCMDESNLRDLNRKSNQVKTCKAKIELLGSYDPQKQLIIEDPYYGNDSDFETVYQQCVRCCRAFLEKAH
UniProt Q5VST6: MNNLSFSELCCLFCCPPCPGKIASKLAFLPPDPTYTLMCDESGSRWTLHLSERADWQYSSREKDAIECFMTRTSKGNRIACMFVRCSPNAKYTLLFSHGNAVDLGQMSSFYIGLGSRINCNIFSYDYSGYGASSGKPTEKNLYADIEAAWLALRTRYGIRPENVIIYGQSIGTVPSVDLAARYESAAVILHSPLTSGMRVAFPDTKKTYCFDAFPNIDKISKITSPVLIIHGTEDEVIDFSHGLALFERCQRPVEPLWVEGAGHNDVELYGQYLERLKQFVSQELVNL
UniProt Q5JTZ9, whole entry, looked up: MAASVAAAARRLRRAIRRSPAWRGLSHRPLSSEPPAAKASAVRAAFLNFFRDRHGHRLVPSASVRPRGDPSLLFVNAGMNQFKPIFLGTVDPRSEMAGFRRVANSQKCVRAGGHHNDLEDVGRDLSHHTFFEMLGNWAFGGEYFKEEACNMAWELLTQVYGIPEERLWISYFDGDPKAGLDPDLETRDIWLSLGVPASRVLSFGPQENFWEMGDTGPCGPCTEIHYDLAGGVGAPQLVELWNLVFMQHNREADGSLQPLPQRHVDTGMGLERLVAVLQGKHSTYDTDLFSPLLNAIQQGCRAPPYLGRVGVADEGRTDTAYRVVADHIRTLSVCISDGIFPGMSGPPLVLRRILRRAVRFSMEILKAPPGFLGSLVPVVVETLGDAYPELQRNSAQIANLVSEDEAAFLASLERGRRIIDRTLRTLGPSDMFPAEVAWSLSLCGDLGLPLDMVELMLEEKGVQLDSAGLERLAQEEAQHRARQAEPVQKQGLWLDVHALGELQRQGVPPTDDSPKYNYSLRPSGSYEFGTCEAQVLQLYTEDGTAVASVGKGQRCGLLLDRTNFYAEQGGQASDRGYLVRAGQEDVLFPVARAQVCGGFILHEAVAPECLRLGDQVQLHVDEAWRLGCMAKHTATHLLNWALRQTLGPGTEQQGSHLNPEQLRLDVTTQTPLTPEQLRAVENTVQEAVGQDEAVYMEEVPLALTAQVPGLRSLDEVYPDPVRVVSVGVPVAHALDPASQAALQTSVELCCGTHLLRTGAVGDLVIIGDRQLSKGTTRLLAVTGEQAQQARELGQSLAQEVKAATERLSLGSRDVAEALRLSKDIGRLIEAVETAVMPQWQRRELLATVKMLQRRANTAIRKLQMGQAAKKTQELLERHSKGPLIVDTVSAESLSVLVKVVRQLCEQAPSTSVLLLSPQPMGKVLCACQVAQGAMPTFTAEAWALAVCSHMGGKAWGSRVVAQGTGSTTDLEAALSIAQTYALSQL
UniProt P11310: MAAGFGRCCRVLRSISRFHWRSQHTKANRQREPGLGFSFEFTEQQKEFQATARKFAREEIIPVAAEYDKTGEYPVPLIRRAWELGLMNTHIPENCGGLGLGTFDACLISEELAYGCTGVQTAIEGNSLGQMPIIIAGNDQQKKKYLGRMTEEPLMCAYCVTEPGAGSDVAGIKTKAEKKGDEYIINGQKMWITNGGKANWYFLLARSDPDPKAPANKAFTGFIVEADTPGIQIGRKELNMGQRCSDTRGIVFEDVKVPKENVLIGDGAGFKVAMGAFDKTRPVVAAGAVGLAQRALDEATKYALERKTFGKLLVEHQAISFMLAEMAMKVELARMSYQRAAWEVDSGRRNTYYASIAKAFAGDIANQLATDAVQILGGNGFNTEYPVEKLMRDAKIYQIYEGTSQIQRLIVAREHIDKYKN
UniProt Q9BR61: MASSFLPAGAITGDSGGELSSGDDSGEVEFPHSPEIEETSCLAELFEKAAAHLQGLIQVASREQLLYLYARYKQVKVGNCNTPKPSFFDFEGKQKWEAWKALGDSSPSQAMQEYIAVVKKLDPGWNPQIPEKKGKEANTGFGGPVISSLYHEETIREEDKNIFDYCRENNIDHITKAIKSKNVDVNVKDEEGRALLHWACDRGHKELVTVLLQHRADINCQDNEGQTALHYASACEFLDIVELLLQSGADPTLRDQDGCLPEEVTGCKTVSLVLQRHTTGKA
UniProt Q7L211: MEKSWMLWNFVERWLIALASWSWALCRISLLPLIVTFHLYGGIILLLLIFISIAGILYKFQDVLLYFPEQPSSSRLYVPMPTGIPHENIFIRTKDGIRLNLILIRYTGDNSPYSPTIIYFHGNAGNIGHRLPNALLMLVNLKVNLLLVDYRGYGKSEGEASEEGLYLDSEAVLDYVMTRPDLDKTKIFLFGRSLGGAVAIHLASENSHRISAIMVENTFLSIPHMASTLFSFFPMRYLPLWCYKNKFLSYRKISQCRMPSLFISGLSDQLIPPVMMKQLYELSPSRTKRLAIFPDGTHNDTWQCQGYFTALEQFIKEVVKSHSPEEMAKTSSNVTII
UniProt P42025, whole entry, looked up: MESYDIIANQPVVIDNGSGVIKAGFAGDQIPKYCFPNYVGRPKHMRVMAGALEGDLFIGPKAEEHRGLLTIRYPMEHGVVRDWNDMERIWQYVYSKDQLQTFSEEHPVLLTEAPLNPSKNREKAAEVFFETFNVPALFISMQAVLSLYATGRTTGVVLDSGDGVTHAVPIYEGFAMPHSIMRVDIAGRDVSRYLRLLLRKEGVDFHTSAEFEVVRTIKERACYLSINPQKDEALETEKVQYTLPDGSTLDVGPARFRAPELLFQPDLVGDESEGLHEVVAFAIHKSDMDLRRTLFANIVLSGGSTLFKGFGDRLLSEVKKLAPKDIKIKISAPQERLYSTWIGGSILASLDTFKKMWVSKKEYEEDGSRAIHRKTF
UniProt Q6JQN1: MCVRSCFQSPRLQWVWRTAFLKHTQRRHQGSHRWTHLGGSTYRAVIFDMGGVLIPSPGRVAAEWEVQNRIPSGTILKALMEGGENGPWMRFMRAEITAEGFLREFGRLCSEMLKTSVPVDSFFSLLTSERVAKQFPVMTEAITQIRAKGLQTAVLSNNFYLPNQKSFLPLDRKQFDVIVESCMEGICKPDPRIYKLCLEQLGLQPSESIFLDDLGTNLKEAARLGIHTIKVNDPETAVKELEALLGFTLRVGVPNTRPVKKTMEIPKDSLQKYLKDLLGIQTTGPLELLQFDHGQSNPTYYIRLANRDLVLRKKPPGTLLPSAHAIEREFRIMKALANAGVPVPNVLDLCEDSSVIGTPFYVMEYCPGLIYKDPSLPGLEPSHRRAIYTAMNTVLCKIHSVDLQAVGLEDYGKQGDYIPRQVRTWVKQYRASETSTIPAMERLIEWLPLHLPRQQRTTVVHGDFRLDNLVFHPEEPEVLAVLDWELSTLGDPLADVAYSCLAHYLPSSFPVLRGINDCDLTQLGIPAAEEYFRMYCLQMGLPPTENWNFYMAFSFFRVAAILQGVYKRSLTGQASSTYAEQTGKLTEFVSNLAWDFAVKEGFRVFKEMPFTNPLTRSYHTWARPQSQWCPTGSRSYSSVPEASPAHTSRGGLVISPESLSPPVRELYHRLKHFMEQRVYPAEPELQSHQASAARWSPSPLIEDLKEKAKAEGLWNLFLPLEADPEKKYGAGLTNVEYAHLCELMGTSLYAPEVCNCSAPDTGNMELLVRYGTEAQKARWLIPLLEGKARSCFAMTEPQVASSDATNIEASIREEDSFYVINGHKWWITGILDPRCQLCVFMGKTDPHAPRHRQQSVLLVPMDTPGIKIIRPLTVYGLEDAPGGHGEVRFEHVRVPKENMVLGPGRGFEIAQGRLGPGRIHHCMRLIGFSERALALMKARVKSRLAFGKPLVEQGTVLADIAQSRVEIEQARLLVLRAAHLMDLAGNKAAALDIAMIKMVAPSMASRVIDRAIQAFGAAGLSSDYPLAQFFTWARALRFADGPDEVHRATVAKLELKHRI
UniProt Q8NFV4: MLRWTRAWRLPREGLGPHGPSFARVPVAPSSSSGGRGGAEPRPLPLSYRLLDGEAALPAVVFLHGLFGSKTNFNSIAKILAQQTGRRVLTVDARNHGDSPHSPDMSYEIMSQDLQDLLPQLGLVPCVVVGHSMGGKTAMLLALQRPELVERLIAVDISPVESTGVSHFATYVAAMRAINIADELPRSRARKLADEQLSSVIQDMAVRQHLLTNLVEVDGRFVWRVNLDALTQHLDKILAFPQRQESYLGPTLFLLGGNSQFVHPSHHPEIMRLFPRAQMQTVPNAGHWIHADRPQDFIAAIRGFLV
UniProt Q8TB40: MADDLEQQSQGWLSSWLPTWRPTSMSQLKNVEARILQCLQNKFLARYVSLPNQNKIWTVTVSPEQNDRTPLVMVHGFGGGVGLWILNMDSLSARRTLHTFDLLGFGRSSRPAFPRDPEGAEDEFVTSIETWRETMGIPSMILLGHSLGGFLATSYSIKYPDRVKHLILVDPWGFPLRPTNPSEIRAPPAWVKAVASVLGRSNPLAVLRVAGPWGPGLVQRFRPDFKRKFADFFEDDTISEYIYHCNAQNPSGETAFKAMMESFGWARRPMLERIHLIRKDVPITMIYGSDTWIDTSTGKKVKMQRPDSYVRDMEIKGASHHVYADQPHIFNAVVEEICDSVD

Columns and labels:
Test in all cases: log2 fold change, soluble protein after heating vs DMSO (PISA); higher = thermal stabilisation; K562 cells, 10 uM, 30 min; active = over 0.2 and 3.5 SD of the protein, either way, in both replicates (recomputed)
[1] = compound: CN1CCN(CCOc2cc(OC3CCOCC3)c3c(Nc4c(Cl)ccc5c4OCO5)ncnc3c2)CC1 [saracatinib]
Outline: (§1)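 K562 cells (2×10^6 cells/mL) were treated with 10 μM compound for 30 min, and aliquots were heated for 3 min over 48°C-58°C. Pooled aliquots were extracted in PBS with 0.5% NP-40 at 4°C, and the supernatant after 21,000xg for 90 min was measured by TMTpro 16plex LC-MS/MS with channel sums equalised. Reported thermal stability, relative to control samples and from duplicates, is a log2 fold change.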

[2] = compound: CN1CCN(c2nc(C3=C(c4c[nH]c5ccccc45)C(=O)NC3=O)c3ccccc3n2)CC1 [sotrastaurin]
Outline: as §1

[3] = compound: CN1CCc2c(c3ccccc3n2Cc2ccc(C(=O)NO)cc2)C1 [Tubastatin A]
Outline: as §1

[4] = compound: CNC(=O)C1=CC=CC=C1NC2=NC(=NC=C2Cl)NC3=C(C=C(C=C3)N4CCOCC4)OC
Outline: as §1

[5] = compound: CNC(=O)c1ccc(Nc2ncc(C(F)(F)F)c(NCc3nccnc3N(C)S(C)(=O)=O)n2)cc1 [defactinib]
Outline: as §1

[6] = compound: CNCc1ccc(-c2[nH]c3cc(F)cc4c3c2CCNC4=O)cc1 [rucaparib]
Outline: as §1

[7] = compound: CNc1nc(-c2ccc3c(N)n[nH]c3c2)cc(N2C[C@@H](C(=O)NC3CCCCC3)CC[C@H]2C)n1
Outline: as §1

[8] = compound: COC(=O)N[C@@H](C)CNc1nccc(-c2cn(C(C)C)nc2-c2cc(Cl)cc(NS(C)(=O)=O)c2F)n1 [encorafenib]
Outline: as §1

[9] = compound: COC(=O)[C@H](CCSC)NC(=O)C1=C(C=C(C=C1)NC[C@H](CS)N)C2=CC=CC=C2
Outline: as §1

[10] = compound: COC1=CC=C(C=C1)CN2C=CC3=C2C=C(C=C3)C(=O)NO
Outline: as §1

[11] = compound: CON(C)C(=O)N1N=C(c2cc(F)ccc2F)S[C@@]1(CCCN)c1ccccc1 [filanesib]
Outline: as §1

[12] = compound: CO[C@H]1C[C@@H]2CC[C@@H](C)[C@@](O)(O2)C(=O)C(=O)N2CCCC[C@H]2C(=O)O[C@H]([C@H](C)C[C@@H]2CC[C@H](n3cnnn3)[C@H](OC)C2)CC(=O)[C@H](C)/C=C(\C)[C@@H](O)[C@@H](OC)C(=O)[C@H](C)C[C@H](C)/C=C/C=C/C=C/1C [zotarolimus]
Outline: as §1

[13] = compound: COc1cc(C(=O)O)ccc1NC(=O)[C@@H]1N[C@@H](CC(C)(C)C)[C@](C#N)(c2ccc(Cl)cc2F)[C@H]1c1cccc(Cl)c1F [idasanutlin]
Outline: as §1

[14] = compound: COc1cc(Nc2ncc3c(n2)-c2ccc(Cl)cc2C(c2c(F)cccc2OC)=NC3)ccc1C(=O)O [alisertib]
Outline: as §1

[15] = compound: COc1cc2nc(-c3cc(F)ccc3O)nc(N[C@@H]3CNC[C@H]3C(C)(C)O)c2cc1OC
Outline: as §1

[16] = compound: COc1cc2ncnc(Nc3ccc(F)c(Cl)c3)c2cc1OCCCN1CCOCC1 [gefitinib]
Outline: as §1

[17] = compound: COc1cccc2cc(-c3nc([C@H]4CC[C@H](C(=O)O)CC4)n4ncnc(N)c34)[nH]c12
Outline: as §1

[18] = compound: CS(=O)(=O)CCNCc1ccc(-c2ccc3ncnc(Nc4ccc(OCc5cccc(F)c5)c(Cl)c4)c3c2)o1 [lapatinib]
Outline: as §1

[19] = compound: CS(=O)(=O)N1CCN(Cc2cc3nc(-c4cccc5[nH]ncc45)nc(N4CCOCC4)c3s2)CC1 [pictilisib]
Outline: as §1

[20] = compound: CN1CC[C@H](c2c(O)cc(O)c3c(=O)cc(-c4ccccc4Cl)oc23)[C@H](O)C1 [alvocidib]
Outline: as §1

Measured: log2 fold change

AAR2 (UniProt Q9Y312)
inactive: [1] 0.06 | [2] -0.017 | [3] -0.027 | [4] -0.049 | [5] 0.063 | [6] 0.17 | [7] -0.069 | [8] -0.029 | [9] -0.015 | [10] 0.022 | [11] 0.111 | [12] 0.042 | [13] 0.002 | [14] -0.129 | [15] 0.104 | [16] 0.075 | [17] 0.058 | [18] -0.005 | [19] -0.082

ADAD1 (UniProt Q96M93)
inactive: [1] -0.112 | [20] -0.021 | [3] 0.101 | [4] -0.049 | [5] 0.008 | [6] -0.208 | [7] -0.102 | [8] 0.056 | [9] 0.11 | [10] -0.198 | [12] -0.145 | [14] -0.176 | [16] -0.013 | [17] 0.07 | [19] 0.323

AAMP (UniProt Q13685)
inactive: [1] -0.002 | [2] 0.006 | [3] -0.049 | [4] 0.022 | [5] -0.102 | [6] 0.054 | [7] -0.014 | [8] -0.016 | [9] -0.009 | [10] -0.031 | [11] 0.003 | [12] 0.029 | [13] -0.052 | [14] -0.049 | [15] -0.027 | [16] 0.026 | [17] 0.033 | [18] 0.024 | [19] -0.002

ACSL5 isoform 3 (UniProt Q9ULC5)
inactive: [1] 0.058 | [2] 0.078 | [3] -0.057 | [4] 0.071 | [5] -0.063 | [6] 0.005 | [7] -0.132 | [8] -0.072 | [9] 0 | [10] -0.023 | [11] -0.118 | [12] 0.073 | [13] -0.148 | [14] -0.009 | [15] -0.259 | [16] 0.068 | [17] 0.074 | [18] 0.074 | [19] 0.065

ABHD17A isoform 2 (UniProt Q96GS6)
inactive: [1] 0.002 | [2] 0.01 | [3] 0.065 | [5] -0.008 | [6] 0.017 | [7] -0.052 | [8] 0.104 | [9] 0.059 | [10] -0.194 | [11] 0.086 | [12] 0.012 | [13] 0.034 | [14] 0.032 | [15] 0.069 | [16] 0.081 | [17] 0.027 | [18] -0.038 | [19] 0.077
active: [4] -0.595

ACP1 isoform 2 (UniProt P24666)
inactive: [1] -0.175 | [2] -0.11 | [3] 0.111 | [4] 0.038 | [5] -0.047 | [6] 0.019 | [7] 0.059 | [8] 0.064 | [9] 0.024 | [10] 0.029 | [11] 0.095 | [12] 0.009 | [13] 0.028 | [14] 0.094 | [15] 0.036 | [16] 0.045 | [17] -0.077 | [18] 0.014 | [19] 0.055

ACSF3 (UniProt Q4G176)
inactive: [1] 0.079 | [2] 0.002 | [3] -0.067 | [4] 0.099 | [5] -0.058 | [6] -0.051 | [7] -0.016 | [8] 0.146 | [9] -0.019 | [10] -0.099 | [11] -0.045 | [12] -0.01 | [13] 0.051 | [14] 0.001 | [15] -0.053 | [16] -0.096 | [17] 0.054 | [18] -0.004 | [19] 0.064

ACSL6 isoform 1 (UniProt Q9UKU0)
inactive: [1] -0.041 | [2] 0.177 | [3] -0.076 | [4] -0.048 | [5] 0.155 | [7] -0.007 | [9] 0.021 | [11] -0.054 | [14] -0.013 | [16] 0.103 | [17] 0.123 | [19] 0.051

AASDH (UniProt Q4L235)
inactive: [1] 0.011 | [2] -0.067 | [3] 0.16 | [4] -0.014 | [5] -0.091 | [7] -0.036 | [9] -0.004 | [10] -0.13 | [11] -0.01 | [12] -0.221 | [14] -0.141 | [15] 0.041 | [16] -0.143 | [17] 0.207 | [18] 0.063 | [19] 0.093

ABHD17B (UniProt Q5VST6)
inactive: [1] -0.052 | [20] -0.067 | [3] -0.004 | [4] 0.13 | [5] -0.09 | [6] -0.133 | [7] 0.075 | [8] -0.058 | [9] 0.009 | [10] 0.011 | [12] 0.053 | [13] -0.097 | [14] -0.087 | [15] 0.091 | [16] 0.035 | [17] 0.064 | [18] 0.001 | [19] 0.086

AAK1, A0A096LP25
inactive: [1] 0.147 | [2] -0.005 | [3] -0.05 | [4] 0.333 | [5] 0.037 | [6] 0.007 | [7] 0.244 | [8] 0.033 | [9] 0.023 | [10] -0.089 | [11] -0.01 | [12] -0.095 | [13] -0.077 | [14] 0.002 | [16] -0.049 | [17] 0.129 | [19] 0.16

AARS2 (UniProt Q5JTZ9)
inactive: [1] 0 | [2] -0.05 | [3] -0.096 | [4] -0.019 | [5] -0.027 | [6] 0.008 | [7] 0.004 | [8] 0 | [9] -0.017 | [10] -0.053 | [11] -0.159 | [12] 0.029 | [13] -0.107 | [14] 0.016 | [15] -0.012 | [16] -0.002 | [17] 0.047 | [18] -0.005 | [19] 0.06

Quoted at random: 2 entries already listed.
AASDH (UniProt Q4L235)
inactive: [1] 0.011 | [2] -0.067 | [3] 0.16 | [4] -0.014 | [5] -0.091 | [7] -0.036 | [9] -0.004 | [10] -0.13 | [11] -0.01 | [12] -0.221 | [14] -0.141 | [15] 0.041 | [16] -0.143 | [17] 0.207 | [18] 0.063 | [19] 0.093

ACSL6 isoform 1 (UniProt Q9UKU0)
inactive: [1] -0.041 | [2] 0.177 | [3] -0.076 | [4] -0.048 | [5] 0.155 | [7] -0.007 | [9] 0.021 | [11] -0.054 | [14] -0.013 | [16] 0.103 | [17] 0.123 | [19] 0.051

Later entries

ACADM isoform 2 (UniProt P11310)
active: [2] 0.274
inactive: [1] 0.031 | [3] -0.03 | [4] 0.019 | [5] -0.016 | [6] -0.024 | [7] 0.083 | [8] -0.016 | [9] 0.004 | [10] 0.039 | [11] -0.036 | [12] 0.014 | [13] -0.039 | [14] -0.055 | [15] 0.039 | [16] 0.017 | [17] 0.046 | [18] 0.001 | [19] 0.029

ACBD6 (UniProt Q9BR61)
inactive: [1] -0.129 | [2] -0.115 | [3] 0.196 | [4] 0.067 | [5] -0.112 | [6] -0.061 | [7] 0.006 | [8] 0.098 | [9] -0.047 | [10] 0.099 | [11] 0.034 | [12] 0.016 | [13] 0.09 | [14] -0.088 | [15] 0.133 | [16] -0.018 | [17] -0.271 | [18] -0.14 | [19] 0.012

ABHD13 (UniProt Q7L211)
inactive: [1] -0.007 | [2] 0.008 | [3] -0.085 | [4] 0.012 | [5] 0.004 | [6] -0.154 | [7] 0.028 | [8] 0.046 | [9] -0.21 | [10] -0.089 | [11] 0.059 | [13] -0.206 | [14] 0.032 | [15] -0.07 | [16] -0.045 | [17] 0.103 | [18] 0.086 | [19] -0.04

ACTR1B (UniProt P42025)
inactive: [1] 0.012 | [2] -0.025 | [3] -0.004 | [4] 0 | [5] -0.005 | [6] -0.037 | [7] -0.012 | [8] -0.048 | [9] -0.075 | [10] 0.084 | [11] 0.044 | [12] -0.026 | [13] -0.136 | [14] -0.163 | [15] 0.008 | [16] 0.04 | [17] 0.073 | [18] -0.104 | [19] 0.127

ACAD10 isoform 5 (UniProt Q6JQN1)
inactive: [1] 0.133 | [4] -0.018 | [5] -0.165 | [7] 0.216 | [9] -0.001 | [13] -0.231

ABL1 isoform 2 (UniProt P00519)
inactive: [2] 0.046 | [3] 0.071 | [4] -0.167 | [5] -0.026 | [6] 0.144 | [7] -0.031 | [8] 0.144 | [9] -0.049 | [11] 0.175 | [12] 0.048 | [13] 0.165 | [14] -0.105 | [15] 0.058 | [17] 0.051 | [18] 0.102 | [19] -0.02

ABCB5 (UniProt Q2M3G0)
inactive: [4] 0.078 | [16] -0.019

ABHD11 (UniProt Q8NFV4)
inactive: [1] -0.022 | [3] 0.096 | [4] 0.05 | [5] -0.114 | [6] 0.02 | [7] -0.102 | [8] 0.004 | [9] -0.095 | [10] -0.076 | [12] 0.049 | [13] -0.058 | [14] -0.002 | [15] 0.061 | [16] -0.013 | [17] 0.076 | [18] -0.037 | [19] 0.024

ABHD4 (UniProt Q8TB40)
inactive: [4] -0.09

ACTB (UniProt E7EVS6)
inactive: [4] -0.312
